Measured values: patent publication US20050014194A1
These are yes or no findings as the source states them, for the method shown. Some binding calls cover weakened binding; strength is not graded here. Where a sequence is shown, tags or fusion partners need not be part of it.

Molecular target: T1, trancytosis-associated protein (TAP)/p115 from cytosol of differentiated 3T3-L1 adipocytes (UniProt Q9Z1Z0)
T1 sequence (looked up): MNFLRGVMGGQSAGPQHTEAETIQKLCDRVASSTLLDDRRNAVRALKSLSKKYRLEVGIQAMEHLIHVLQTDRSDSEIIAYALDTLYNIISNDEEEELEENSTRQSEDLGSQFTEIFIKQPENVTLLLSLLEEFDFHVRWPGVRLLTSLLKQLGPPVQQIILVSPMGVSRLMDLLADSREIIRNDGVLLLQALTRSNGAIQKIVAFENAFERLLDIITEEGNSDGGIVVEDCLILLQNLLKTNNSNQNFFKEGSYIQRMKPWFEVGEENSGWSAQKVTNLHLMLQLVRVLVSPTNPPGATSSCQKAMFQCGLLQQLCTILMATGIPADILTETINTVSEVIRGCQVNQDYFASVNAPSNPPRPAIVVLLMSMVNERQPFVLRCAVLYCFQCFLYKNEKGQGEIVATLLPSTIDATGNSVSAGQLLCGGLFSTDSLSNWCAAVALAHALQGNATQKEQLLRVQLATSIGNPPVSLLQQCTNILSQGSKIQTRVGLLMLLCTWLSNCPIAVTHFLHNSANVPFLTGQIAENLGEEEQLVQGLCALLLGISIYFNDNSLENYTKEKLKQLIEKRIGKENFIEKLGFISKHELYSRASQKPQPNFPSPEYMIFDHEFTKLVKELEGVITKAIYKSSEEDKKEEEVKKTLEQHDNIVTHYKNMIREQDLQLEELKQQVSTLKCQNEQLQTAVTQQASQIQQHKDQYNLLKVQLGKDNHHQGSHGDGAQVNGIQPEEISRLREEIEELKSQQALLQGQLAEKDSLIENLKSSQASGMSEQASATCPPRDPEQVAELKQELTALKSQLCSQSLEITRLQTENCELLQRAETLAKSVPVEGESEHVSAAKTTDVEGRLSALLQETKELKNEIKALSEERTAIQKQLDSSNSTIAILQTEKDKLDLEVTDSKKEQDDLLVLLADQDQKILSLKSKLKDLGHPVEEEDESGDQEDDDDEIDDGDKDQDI
Assay: competitive elution from the IRAP-CBD chitin bead column loaded with 3T3-L1 adipocyte cytosol

B1: NT-IRAP peptide (soluble N-terminus of IRAP, amino acids 1-109, cleaved from the intein-CBD fusion) (peptide)
peptide: METFTNDRLQLPRNMIENSMFEEEPDVVDLAKEPCLHPLEPDEVEYEPRGSRLLVRGLGEHEMDEDEEDYESSAKLLGMSFMNRSSGLRNSATGYRQSPDGTCSVPSAR
For B1, the binding was “binds”.
